Measurements reported in the supplement of paper PMC8728848.
Some of the results follow.

How the values were obtained:
Experiment in all cases: glycan array binding signal (z-score within array); higher = stronger binding
Conditions in all cases: glycan notation: IUPAC condensed, linker removed
Neu5Ac(a2-3)GalNAc = molecular target: Neu5Ac(a2-3)GalNAc
How it was run: (§1)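 Glycan array binding is given as a within-array Z-score, which can be read as non-binding when negative. The arrays, 3228 of them, came from the Consortium for Functional Glycomics database and were retained only where the protein sequence was available. Z-scores were averaged across arrays of the same protein sequence at different concentrations or buffers and across linkers.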

[1] = molecular target: Neu5Ac(a2-3)GalNAc(b1-4)GlcNAc
How it was run: as §1

[2] = molecular target: Neu5Ac(a2-3)[GalNAc(b1-4)]Gal(b1-4)Glc
How it was run: as §1

[3] = molecular target: Neu5Ac(a2-3)[GalNAc(b1-4)]Gal(b1-4)GlcNAc
How it was run: as §1

[4] = molecular target: Neu5Ac(a2-3)[GalNAc(b1-4)]Gal(b1-4)GlcNAc(b1-3)GalNAc
How it was run: as §1

[5] = molecular target: Neu5Ac(a2-3)[Neu5Ac(a2-6)]GalNAc
How it was run: as §1

Neu5Ac(a2-6)Gal = molecular target: Neu5Ac(a2-6)Gal
How it was run: as §1

[6] = molecular target: Neu5Ac(a2-6)Gal(b1-3)GlcNAc(b1-3)[Gal(b1-4)GlcNAc(b1-6)]Gal(b1-4)Glc
How it was run: as §1

Neu5Ac(a2-6)Gal(b1-4)Glc = molecular target: Neu5Ac(a2-6)Gal(b1-4)Glc
How it was run: as §1

[7] = molecular target: Neu5Ac(a2-6)Gal(b1-4)GlcNAc
How it was run: as §1

[8] = molecular target: Neu5Ac(a2-6)Gal(b1-4)GlcNAc(b1-2)Man
How it was run: as §1

[9] = molecular target: Neu5Ac(a2-6)Gal(b1-4)GlcNAc(b1-2)Man(a1-3)Man(b1-4)GlcNAc(b1-4)GlcNAc
How it was run: as §1

[10] = molecular target: Neu5Ac(a2-6)Gal(b1-4)GlcNAc(b1-2)Man(a1-3)[Gal(b1-4)GlcNAc(b1-2)Man(a1-6)]Man(b1-4)GlcNAc(b1-4)GlcNAc
How it was run: as §1

[11] = molecular target: Neu5Ac(a2-6)Gal(b1-4)GlcNAc(b1-2)Man(a1-3)[GlcNAc(b1-2)Man(a1-6)]Man(b1-4)GlcNAc(b1-4)GlcNAc
How it was run: as §1

[12] = molecular target: Neu5Ac(a2-6)Gal(b1-4)GlcNAc(b1-2)Man(a1-3)[GlcNAc(b1-4)][Neu5Ac(a2-6)Gal(b1-4)GlcNAc(b1-2)Man(a1-6)]Man(b1-4)GlcNAc(b1-4)GlcNAc
How it was run: as §1

[13] = molecular target: Neu5Ac(a2-6)Gal(b1-4)GlcNAc(b1-2)Man(a1-3)[Man(a1-6)]Man(b1-4)GlcNAc(b1-4)GlcNAc
How it was run: as §1

[14] = molecular target: Neu5Ac(a2-6)Gal(b1-4)GlcNAc(b1-2)Man(a1-3)[Neu5Ac(a2-3)Gal(b1-4)GlcNAc(b1-2)Man(a1-6)]Man(b1-4)GlcNAc(b1-4)GlcNAc
How it was run: as §1

[15] = molecular target: Neu5Ac(a2-6)Gal(b1-4)GlcNAc(b1-2)Man(a1-3)[Neu5Ac(a2-6)Gal(b1-4)GlcNAc(b1-2)Man(a1-6)]Man(b1-4)GlcNAc(b1-4)GlcNAc
How it was run: as §1

[16] = molecular target: Neu5Ac(a2-6)Gal(b1-4)GlcNAc(b1-2)Man(a1-3)[Neu5Ac(a2-6)Gal(b1-4)GlcNAc(b1-2)Man(a1-6)]Man(b1-4)GlcNAc(b1-4)[Fuc(a1-6)]GlcNAc
How it was run: as §1

[17] = molecular target: Neu5Ac(a2-6)Gal(b1-4)GlcNAc(b1-2)Man(a1-6)Man(b1-4)GlcNAc(b1-4)GlcNAc
How it was run: as §1

[18] = molecular target: Neu5Ac(a2-6)Gal(b1-4)GlcNAc(b1-2)Man(a1-6)[Gal(b1-4)GlcNAc(b1-2)Man(a1-3)]Man(b1-4)GlcNAc(b1-4)GlcNAc
How it was run: as §1

[19] = molecular target: Neu5Ac(a2-6)Gal(b1-4)GlcNAc(b1-2)Man(a1-6)[GlcNAc(b1-2)Man(a1-3)]Man(b1-4)GlcNAc(b1-4)GlcNAc
How it was run: as §1

[20] = molecular target: Neu5Ac(a2-6)Gal(b1-4)GlcNAc(b1-2)Man(a1-6)[Man(a1-3)]Man(b1-4)GlcNAc(b1-4)GlcNAc
How it was run: as §1

[21] = molecular target: Neu5Ac(a2-6)Gal(b1-4)GlcNAc(b1-2)[Neu5Ac(a2-6)Gal(b1-4)GlcNAc(b1-4)]Man(a1-3)[GlcNAc(b1-4)][Neu5Ac(a2-6)Gal(b1-4)GlcNAc(b1-2)[Neu5Ac(a2-6)Gal(b1-4)GlcNAc(b1-6)]Man(a1-6)]Man(b1-4)GlcNAc(b1-4)GlcNAc
How it was run: as §1

[22] = molecular target: Neu5Ac(a2-6)Gal(b1-4)GlcNAc(b1-2)[Neu5Ac(a2-6)Gal(b1-4)GlcNAc(b1-4)]Man(a1-3)[GlcNAc(b1-4)][Neu5Ac(a2-6)Gal(b1-4)GlcNAc(b1-4)Man(a1-6)]Man(b1-4)GlcNAc(b1-4)GlcNAc
How it was run: as §1

[23] = molecular target: Neu5Ac(a2-6)Gal(b1-4)GlcNAc(b1-2)[Neu5Ac(a2-6)Gal(b1-4)GlcNAc(b1-6)]Man(a1-6)[Neu5Ac(a2-6)Gal(b1-4)GlcNAc(b1-2)Man(a1-3)][GlcNAc(b1-4)]Man(b1-4)GlcNAc(b1-4)GlcNAc
How it was run: as §1

[24] = molecular target: Neu5Ac(a2-6)Gal(b1-4)GlcNAc(b1-3)Gal(b1-3)GlcNAc
How it was run: as §1

[25] = molecular target: Neu5Ac(a2-6)Gal(b1-4)GlcNAc(b1-3)Gal(b1-4)GlcNAc
How it was run: as §1

[26] = molecular target: Neu5Ac(a2-6)Gal(b1-4)GlcNAc(b1-3)Gal(b1-4)GlcNAc(b1-2)Man(a1-3)[Neu5Ac(a2-6)Gal(b1-4)GlcNAc(b1-3)Gal(b1-4)GlcNAc(b1-2)Man(a1-6)]GalNAc
How it was run: as §1

[27] = molecular target: Neu5Ac(a2-6)Gal(b1-4)GlcNAc(b1-3)Gal(b1-4)GlcNAc(b1-3)Gal(b1-4)GlcNAc
How it was run: as §1

[28] = molecular target: Neu5Ac(a2-6)Gal(b1-4)GlcNAc(b1-3)Gal(b1-4)GlcNAc(b1-3)Gal(b1-4)GlcNAc(b1-2)Man(a1-3)[Neu5Ac(a2-6)Gal(b1-4)GlcNAc(b1-3)Gal(b1-4)GlcNAc(b1-3)Gal(b1-4)GlcNAc(b1-2)Man(a1-6)]GalNAc
How it was run: as §1

[29] = molecular target: Neu5Ac(a2-6)Gal(b1-4)GlcNAc(b1-3)Gal(b1-4)GlcNAc(b1-3)GalNAc
How it was run: as §1

[30] = molecular target: Neu5Ac(a2-6)Gal(b1-4)GlcNAc(b1-3)Gal(b1-4)GlcNAc(b1-3)[Neu5Ac(a2-6)Gal(b1-4)GlcNAc(b1-3)Gal(b1-4)GlcNAc(b1-6)]GalNAc
How it was run: as §1

[31] = molecular target: Neu5Ac(a2-6)Gal(b1-4)GlcNAc(b1-3)Gal(b1-4)GlcNAc(b1-6)[Gal(b1-3)]GalNAc
How it was run: as §1

[32] = molecular target: Neu5Ac(a2-6)Gal(b1-4)GlcNAc(b1-3)Gal(b1-4)[Fuc(a1-3)]GlcNAc(b1-3)Gal(b1-4)[Fuc(a1-3)]GlcNAc
How it was run: as §1

[33] = molecular target: Neu5Ac(a2-6)Gal(b1-4)GlcNAc(b1-3)GalNAc
How it was run: as §1

[34] = molecular target: Neu5Ac(a2-6)Gal(b1-4)GlcNAc(b1-3)[Neu5Ac(a2-6)Gal(b1-4)GlcNAc(b1-6)]GalNAc
How it was run: as §1

B1: FimA (Actinomyces oris) (protein)
chain: MHHHHHHSSGVDLGTENLYFQSNAETPNYGNIKTDATGSLVIHKHLTGGGKDIGTPTGTAQNADDKGPAVEGVVFTAYPITDINLKDPAGWDTISNLSRTGVPDSACANPAAPTLGAHQFGTPKVSPATTKEGLATITEMPVQAYLVCETTTPGDIVQKAKPFVVTIPHPNTAAGADGQWIYDVNVYPKNEAIDVDKTIQAQKLNGYGVGSLIKFPVESTAPTLDAKSFYKYFQLKDTLDERLSEVTATDVSLEGTPLQPTDYKVETKQQTVTVTFTAEGLKKIKAAPGKKVSAVFQGKVTKAGNGAITNRAQVISDTLYAEQPPTPETPPTDPENPPTSDEVISRWGDLSIKKVDTHQQGQTKAGLQGAQFQLYKAKNAYANTCSNEKEGAPIAINGQTTLTTDAQGAIDIKGLFISDSIDGADRDNQVNAMERCYVLVETKAPAGYVLPAGNGAATPVKVKAGEETTDNVTVENTKQSVPGLPLTG
glycan array binding signal (z-score) (Neu5Ac(a2-3)GalNAc): -0.006 | glycan array binding signal (z-score) [1]: -0.801 | glycan array binding signal (z-score) [2]: -0.487 | glycan array binding signal (z-score) [3]: -0.88 | glycan array binding signal (z-score) [4]: -0.484 | glycan array binding signal (z-score) [5]: 0.518 | glycan array binding signal (z-score) (Neu5Ac(a2-6)Gal): -0.031 | glycan array binding signal (z-score) [6]: -0.252 | glycan array binding signal (z-score) (Neu5Ac(a2-6)Gal(b1-4)Glc): 0.554 | glycan array binding signal (z-score) [7]: -0.461 | glycan array binding signal (z-score) [8]: -0.714 | glycan array binding signal (z-score) [9]: 0.709 | glycan array binding signal (z-score) [10]: 1.55 | glycan array binding signal (z-score) [11]: 0.269 | glycan array binding signal (z-score) [12]: -0.49 | glycan array binding signal (z-score) [13]: -0.666 | glycan array binding signal (z-score) [14]: -0.446 | glycan array binding signal (z-score) [15]: 0.242 | glycan array binding signal (z-score) [16]: -0.373 | glycan array binding signal (z-score) [17]: -0.411 | glycan array binding signal (z-score) [18]: -0.393 | glycan array binding signal (z-score) [19]: 0.37 | glycan array binding signal (z-score) [20]: 0.305 | glycan array binding signal (z-score) [21]: 0.67 | glycan array binding signal (z-score) [22]: 0.805 | glycan array binding signal (z-score) [23]: 0.162 | glycan array binding signal (z-score) [24]: -0.578 | glycan array binding signal (z-score) [25]: -0.805 | glycan array binding signal (z-score) [26]: 0.384 | glycan array binding signal (z-score) [27]: -0.393 | glycan array binding signal (z-score) [28]: 0.337 | glycan array binding signal (z-score) [29]: -0.794 | glycan array binding signal (z-score) [30]: -0.542 | glycan array binding signal (z-score) [31]: -0.595 | glycan array binding signal (z-score) [32]: 0.922 | glycan array binding signal (z-score) [33]: 1.08 | glycan array binding signal (z-score) [34]: -0.508
